Experimental data reported in US6762284.
No constants are given. Whether binding was seen depends on the method and setting. Some entries that bind do so weakly or less than the wild type.

Chains of the proteins cited; added tags and fusions are not shown. Lines headed by an entry give the natural chain unless they say otherwise; changes in a name come on top.
UniProt P04386: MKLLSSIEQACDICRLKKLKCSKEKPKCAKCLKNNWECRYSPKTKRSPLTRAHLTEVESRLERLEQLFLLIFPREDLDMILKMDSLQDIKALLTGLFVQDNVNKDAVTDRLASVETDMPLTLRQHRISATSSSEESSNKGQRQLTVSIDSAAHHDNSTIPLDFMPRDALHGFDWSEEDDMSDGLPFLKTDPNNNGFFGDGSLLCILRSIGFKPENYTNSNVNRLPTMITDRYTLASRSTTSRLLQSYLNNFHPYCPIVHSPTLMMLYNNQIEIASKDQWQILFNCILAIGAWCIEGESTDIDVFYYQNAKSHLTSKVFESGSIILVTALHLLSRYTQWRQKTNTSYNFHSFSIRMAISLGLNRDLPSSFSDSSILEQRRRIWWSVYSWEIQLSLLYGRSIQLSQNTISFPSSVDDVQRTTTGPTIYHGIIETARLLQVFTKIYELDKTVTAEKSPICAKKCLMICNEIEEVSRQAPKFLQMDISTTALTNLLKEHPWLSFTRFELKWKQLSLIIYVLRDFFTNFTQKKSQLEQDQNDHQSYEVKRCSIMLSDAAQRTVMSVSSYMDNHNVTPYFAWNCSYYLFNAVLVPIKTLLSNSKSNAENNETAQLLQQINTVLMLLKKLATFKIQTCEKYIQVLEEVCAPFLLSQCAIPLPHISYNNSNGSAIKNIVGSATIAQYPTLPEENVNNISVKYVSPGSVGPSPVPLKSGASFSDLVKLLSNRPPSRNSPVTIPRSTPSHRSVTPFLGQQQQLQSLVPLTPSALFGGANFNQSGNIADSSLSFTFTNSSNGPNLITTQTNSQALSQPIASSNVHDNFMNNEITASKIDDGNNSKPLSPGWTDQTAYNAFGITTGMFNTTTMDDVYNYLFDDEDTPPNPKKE
UniProt P27986: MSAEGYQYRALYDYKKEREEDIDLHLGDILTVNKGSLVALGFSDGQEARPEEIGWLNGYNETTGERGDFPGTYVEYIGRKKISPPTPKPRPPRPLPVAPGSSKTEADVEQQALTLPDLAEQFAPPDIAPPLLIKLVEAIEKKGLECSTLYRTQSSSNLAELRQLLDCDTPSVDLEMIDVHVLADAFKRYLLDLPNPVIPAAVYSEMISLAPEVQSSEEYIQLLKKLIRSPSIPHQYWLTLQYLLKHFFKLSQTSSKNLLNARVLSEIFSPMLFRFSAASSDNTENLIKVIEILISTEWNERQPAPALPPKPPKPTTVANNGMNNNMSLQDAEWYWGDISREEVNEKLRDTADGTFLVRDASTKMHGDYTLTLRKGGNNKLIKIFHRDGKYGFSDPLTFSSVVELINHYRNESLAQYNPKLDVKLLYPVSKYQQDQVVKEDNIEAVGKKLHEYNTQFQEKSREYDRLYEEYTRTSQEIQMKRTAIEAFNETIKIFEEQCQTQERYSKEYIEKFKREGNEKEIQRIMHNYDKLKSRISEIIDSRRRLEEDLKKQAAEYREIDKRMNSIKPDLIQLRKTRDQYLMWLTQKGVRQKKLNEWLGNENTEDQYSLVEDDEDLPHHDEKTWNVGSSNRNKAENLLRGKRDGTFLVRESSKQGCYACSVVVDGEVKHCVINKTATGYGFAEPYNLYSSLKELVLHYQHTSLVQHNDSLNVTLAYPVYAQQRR

Key:
Experiment in all cases: yeast two-hybrid
[1] = target: p85 N-terminal SH2 and inter SH2 domain (AA 263-620) (human) (UniProt P04386+P27986)
[2] = target: p85 SH2 domains and inter SH2 domain (AA 263-727) (human) (UniProt P04386+P27986)
[3] = target: p85 full length (AA 6-727) (human) (UniProt P04386+P27986)

- binding [1]: binds
- binding [2]: binds
- binding [3]: binds
B1: PIKAP AA 277-589 (protein, not shown: large carriers)
chain: EDSGDAEAHAFKSPSKENKKKDKDMLEDKFKSNNLEREQEQLDRIVKESGGKLTRRLVNSQCEFERRKPDGTTTLGLLHPVDPIVGEPGYCLVRLGMTTGRLQSGVNTLQGFKEDKRNKVTPVLYLNYGPYSSYAPHYDSTFANISKDDSDLIYSTYGEDSDLPSDFSIHEFLATCQDYPYVMADSLLDVLTKGGHSRTLQEMEMSLPEDEGHTRTLDTGKEMEQITEVEPPGRLDSSTQDRLIALKAVTNFGVPVEVFDSEEAEIFQKKLDETTRLLRELQEAQNERLSTRPPGNMICLLGPSSEKCILLNK
